Results on three molecules are retold here after US20200087408A1 (ANAPTYSBIO, published 2020).

Assay [1] addresses T1, human IL-36R (monomeric antigen of Example 8) (human) (UniProt Q9HB29).
T1 sequence (looked up): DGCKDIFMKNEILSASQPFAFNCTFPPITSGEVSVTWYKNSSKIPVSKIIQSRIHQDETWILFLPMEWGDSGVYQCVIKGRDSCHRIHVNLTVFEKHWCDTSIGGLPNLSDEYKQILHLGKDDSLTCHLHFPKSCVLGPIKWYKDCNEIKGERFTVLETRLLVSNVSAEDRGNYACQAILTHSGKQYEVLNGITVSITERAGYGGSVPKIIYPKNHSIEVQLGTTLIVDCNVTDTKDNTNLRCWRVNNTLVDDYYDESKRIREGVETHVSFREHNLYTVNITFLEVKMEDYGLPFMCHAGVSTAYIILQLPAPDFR
Nature of the assay: BIACORE T200 cross-competition, primary antibody captured, IL-36R at 1 µM, then secondary antibody. For orientation: In SPR one partner is held on a chip, and binding of the other changes the refractive index at the surface.

Assay [2] deals with T1, human IL-36R (monomeric antigen of Example 8) (human). The experiment in a line: BIACORE SPR cross-competition: APE5100 captured by anti-human IgG, IL-36R at 1 uM run over it.
For assay [3] the target is unchanged. The experiment in a line: BIACORE SPR cross-competition: secondary antibody on IL-36R held by captured primary antibody APE6155.
The target is the same in assay [4]. Nature of the assay: BIACORE SPR cross-competition: secondary antibody on IL-36R held by captured primary antibody APE5100.
Assay [5] shares this target. The experiment in a line: BIACORE SPR cross-competition: APE6155 captured by anti-human IgG, IL-36R at 1 uM run over it.

No constants are given. Whether binding was seen depends on the method and setting. Some binding calls cover weakened binding; strength is not graded here.

B1: APE5100 (1D9) (antibody, V domains shown)
VH: QVQLMQSGAEVKKPGASVKVSCKASGFTFTSYDINWVRQAPGQRLEWMGWIYPGDSSTKYNEKFKGRVTITRDKSANTAYMELASLRSEDTAVYFCTRSFYTMDYWGQGTTVTVSS
VL: DIVMTQSPLSLPVTPGEPASISCRSSKSLLHSNANTYLYWFLQKPGQSPQLLISRMSNLASGVPDRFSGSGSGTDFTLKISRVEAEDVGVYYCMQHLEYPFTFGQGTKLEIK
With B1, the binding entry in assay [1], in assay [2] and in assay [3] was “binds” each time.

B2: Chimeric 18D4 (APE3847) (antibody, V domains shown)
VH: DVQFQESGPGLVKPSQSLSLTCTVTGYSITSDFAWNWIRQFPGNKLEWMGYISYSGDTNYNPSLKSRISITRDTSKNQFFLQLNSVTTEDTATYFCAIRGPYSFTYWGPGTLVTVSS
VL: DIQMTQTTSSLSASLGDRVTINCRASQDINNYLNWYQQKPDGTIRLLIYYTSRLHSGVPSRFSPNGSGTDYSLTINNLEQEDIATYFCQQGHTLPWTFGGGTKLEIK
For B2, the binding result in assay [4] is on record as “binds”.

B3: Hzd 5D3 (APE6155) (antibody, V domains shown)
VH: QVQLVQSGAEVKKPGASVKVSCKASGYTFTNYWMNWVRQAPRQGLEWMGMFHPTGDVTRLNQKFKDRVTMTRDTSTSTVYMELSSLRSEDTAVYYCARTTSMIIGGFAYWGQGTLVTVSS
VL: DIVMTQTPLSLSVTPGQPASISCRSSKSLLHRNAITYFYWYLHKPGQPPQLLIYQMSNLASGVPDRFSGSGSGTDFTLKISRVEAEDVGVYYCAQNLELPLTFGGGTKVEIK
notes: also called APE6917; APE06155
Regarding B3, the binding entry in assay [5] and in assay [4] was “binds” each time.
